## Primary screen of a compound library

Results are given as percent effect. How 0% and 100% were set is not recorded. Most values in the screen are low, and negative values occur. Compounds were drawn at random from those tested, without regard to their results. Two or more numbers in one place are separate tests of the same structure; such repeats can differ widely.

Mtb cholesterol medium: 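Whole-cell growth test on Mycobacterium tuberculosis, read after 4 days in a medium based on cholesterol and the lipid DPPC; the read-out is not stated. Compounds at 50 µM. The record gives no direction; compounds that gave an IC50 in retests scored well above the rest, so higher reads as more growth inhibition. Size under these conditions: about 69,000 compounds, about 370 of them at 50% or above in at least one test.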
Mtb glucose medium: 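Phenotypic screen: M. tuberculosis growth, glucose 7H9 medium, 3 days; the read-out is not stated. Tested at 50 µM. The record gives no direction; compounds that gave an IC50 in retests scored well above the rest, so higher reads as more growth inhibition. About 69,000 compounds were tested under these conditions; 1.1% (about 760) showed 50% or more at least once.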

Compound	Mtb cholesterol medium	Mtb glucose medium
Cc1cc(C)cc(OCCN(C)Cc2ccc(S(=O)(=O)N(C)C)o2)c1	-32.47	-8.312
CN(C(=O)CCc1ccsc1)S(C)(=O)=O	-11.86 and 8.711	19.67
COc1ccccc1CC1CCCN(CCN2CCOC2=O)C1 (centres undefined)	2.303	28.25
Cn1nc(COCC2CC2)c2c1CCN(C(=O)c1ccno1)C2	11.48	5.18 and -2.424
CC(C)C(=O)N1CCC2(CN(CC3CCCC3)C2)C1.O=C(O)C(F)(F)F	-0.6816	-3.246 and -12.22
CC1(C)CN(C(=O)CCc2nc(-c3ccncc3)no2)CCO1	-22.27	-19.92 and -2.655
CCC1CN(CC(=O)NCc2ccco2)CCO1 (centres undefined)	-26.88	-27.18
CS(=O)(=O)NCCC1CCCCN1C(=O)NCCc1ccccc1 (centres undefined)	27.52	-4.015 and -27.9
COc1cc(N2CCC3(CCCN(Cc4ccccn4)C3)C2)ncn1.O=C(O)C(F)(F)F (centres undefined)	3.306	7.034
COCC1c2nnn(CC3CC3)c2CCN1C(=O)c1cc(C)[nH]c1C (centres undefined)	-0.7419 and -3.599	6.02 and 3.549
O=C(O)C(F)(F)F.[H][C@@]12COC[C@]1(CN1CCOCC1)CN(S(=O)(=O)CCC)C2	-0.5907	-13.58 and 6.104
Cn1cc(CN2CCCC3(CCCCN3S(C)(=O)=O)C2)cn1.O=C(O)C(F)(F)F (centres undefined)	-20.33	-7.95
O=C(c1ccc(S(=O)(=O)N2CCSCC2)cc1)N1CCCCCC1	-26.3	-0.704 and -22.79
CCOCC1CN(Cc2cnn(C)c2)Cc2ncn(CC3CC3)c21 (centres undefined)	-30.08	-18.45
COc1ccc(-n2ccc(C(=O)N(C)C(C)C3(C)CC3)n2)cc1 (centres undefined)	-12.95	-10.37
CS(=O)(=O)N1CCCC12CCCN(c1nccs1)C2 (centres undefined)	20.99	12.89 and 4.031
Cc1cc(N(C)C)nc(C2(C)CCNCC2)n1	-20.1	6.462
CN1CCCc2cc(-c3cncn3CC(=O)NC(C)(C)C)ccc21.Cl	2.298	3.061
CCc1ccc(NC(=O)C2OC(c3cccs3)=NN2C(C)=O)cc1 (centres undefined)	-16.98	-14.23
CCCC(=O)Nc1cc(C(=O)NC(C)Cc2ccncc2)ccc1C (centres undefined)	-0.1894	36.45
Cc1cccnc1CN1CCN(C(=O)c2cc(Cl)c[nH]c2=O)CC1	-11.36	-32.87
CNC(=O)C1(c2cnccn2)CCCN1C(=O)c1ccn(C)n1 (centres undefined)	3.655	31.33
Cc1c(C(=O)N2CCOCC2)n(C)c2ccc(Cl)cc12.Cl	-22.74	21.05 and 10.23
Oc1cc(C2CCCCN2Cc2cccs2)nc(-c2ccncc2)n1 (centres undefined)	-10.82 and -16.74	-7.127
[H][C@@]12COC[C@]1(COc1nccc(C)n1)CN(C(=O)c1ccnn1C)C2	21.67	13.66
COCCN(Cc1ccccn1)C(=O)C1CCCCCN1C (centres undefined)	20.73	14.31
CCc1ncnc2c1CCN(C(=O)N1CCCC1)CC2	-10.56	-19.75
COc1ccc(-c2nnc(SC(C)C(=O)NCC(C)C)[nH]2)c(OC)c1 (centres undefined)	18.92	-0.0809 and 11.15
O=c1cc(Cn2ccnc2)nc2n1CCCN(CC1CCOCC1)C2	-8.824	19.71
CCOc1ccc(NS(=O)(=O)c2cc(C)c(C(=O)O)s2)cc1F	-12.83	7.182 and -23.59
Cc1cc(NC(=O)CNC(C)(C)c2nc(C)c(C)s2)no1	-23.88	1.159
Cc1noc(C)c1CN1CCC(c2ccnn2CCO)CC1	6.629	9.919
Cc1nc(N2CCC(O)(c3ccccc3)CC2)c2c(C)nn(C)c2n1	-1.871	14.91
O=C1CC(c2cccc(O)c2)c2c(c(C(=O)O)cn2-c2ccccc2)N1 (centres undefined)	-12.58	-22.53
Cc1ccc(C(CNCc2cnn(C(C)C)c2)N2CCOCC2)s1 (centres undefined)	9.592 and 8.218	13.09
CC(OCC(F)(F)F)C(=O)N1CCCCC1 (centres undefined)	25.63	-4.813 and -10.23
CCC(CO)(CO)NC(=O)C1CCC(=O)N(CCc2ccccc2)C1 (centres undefined)	-5.917	-8.381
CCOC(=O)CN1CCC2(CC1)CC(=O)c1ccc3ccccc3c1O2	-7.869	5.557
O=C(O)C(F)(F)F.O=C(O)C(F)(F)F.[H][C@@]12CCN(CCN3CCCCC3)C[C@]1(C(=O)N1CCOCC1)CCO2	-3.934	12.99
O=C(NCCCOCc1ccco1)c1cccnc1N1CCOCC1	-22.68	19.45
O=C(Nc1ccccn1)NC1CCN(c2ccccc2OC(F)F)C1 (centres undefined)	30.12	27.37 and 25.45
COCCCn1c(CN2CCCC(O)C2)cnc1S(=O)(=O)C1CCCC1 (centres undefined)	-10.92	25.75
CCc1ncc2c(n1)CN(Cc1cnc(C)cn1)CC2	-3.08	-11.32
COCC1CN(CCc2ccc(OC)c(OC)c2)Cc2c1cnn2C (centres undefined)	-13.89	8.292
O=C(O)C(F)(F)F.[H][C@]12CC(=O)N(CC3CC3)[C@@]1([H])CCN2Cc1ccccn1	4.675	-3.05
NS(=O)(=O)c1cc(C(=O)N2CCCC(n3ccnc3)C2)cs1 (centres undefined)	-0.401	6.873
COc1ccc(C(=O)CCC(=O)NCc2ncc(C)s2)cc1F	-2.4	16.96
Cc1nc(CN(Cc2ccncc2)C2CCN(C)CC2)cs1	-45.65	-7.284 and -49.67
Cc1ccc(NC(=O)N2CCCN(C(N)=O)CC2)s1	-42.44	-38.71
CCCc1nnc(NCCn2nc(C)c(Cl)c2C)o1	14.95	-8.803
N#Cc1c(Cl)nsc1NCc1ccc(N2CCC(CO)CC2)cc1	12.02	1.747
COc1ccc2c(c1)OCC(CNC1CCc3nc(C)nn3C1)=C2 (centres undefined)	10.73	20.29
CSCCC(C)NC(=O)c1cccc(-c2n[nH]c(C)n2)c1 (centres undefined)	19.66	-6.147
OCC1(O)CCCN(Cc2ccc(-c3cc[nH]n3)s2)CC1 (centres undefined)	-11.9	15.88 and 3.499
[H][C@]12CC[C@]([H])(CN(C(=O)c3ccccn3)C1)N(C(=O)c1ccsc1)C2	-2.749 and -7.551	-3.773
COc1ccc(C2=CCN(C(=O)C3CC(=O)N(C4CC4)C3)CC2)cc1 (centres undefined)	-6.367	21.11
CCc1nnc(NC(=O)N(CCOC)Cc2ccc(C)o2)s1	31.97	39.9 and 43.37
CNS(=O)(=O)c1ccc(F)c(C(=O)NCc2ccnc(OC)c2)c1	-35.45	-3.229
C[C@@H]1CN(Cc2nc(Cc3ccccc3F)no2)C[C@H](C)O1	-24.91	-15.24
O=C(O)C(F)(F)F.[H][C@@]12CCN(Cc3ccc(C)s3)C[C@]1(COC)CCO2	-18.58	-15.14
O=C(O)C(F)(F)F.O=C(O)C(F)(F)F.[H][C@@]12CN(Cc3cncn3C)C[C@]1([H])OCCN2Cc1c(C)noc1C	13.68	-26.63
Cc1nn(CC(=O)NCCc2ccncc2)c(=O)n1Cc1ccccc1	-4.203 and -8.601	6.61
Cc1cc(N2CCN(Cc3ccc(-c4cc[nH]n4)o3)CC2)cc(C)n1	-2.906	-7.26
COCCNc1ccc(CNC(=O)C2COc3ccccc32)cc1 (centres undefined)	-59.01	12.24
CC1(C)OC(=O)N(CCOc2ccc(F)cc2)C1=O	8.247	6.772
Cl.Cl.NCC(=O)N1CCCC(c2cncc(Nc3ncccn3)n2)C1 (centres undefined)	-17.34	-20.1
CN1CCCC1c1ccnc(-c2ccccn2)n1 (centres undefined)	-11.91	-17.35
COc1ccc(C)cc1CN(C)CC(=O)NC1(C)CCS(=O)(=O)C1 (centres undefined)	11.38	-6.64
Cc1nn(C)c2c(N3CCN(C(=O)C4CCCCC4)CC3)ncnc12	-23.23	19.5
O=C(c1n[nH]c(=O)c2ccccc12)N1CCCCC1c1ccn[nH]1 (centres undefined)	0.9846	19.77
CN(C)C(=O)CN1C(=O)CCC12CCN(Cc1ccsc1)CC2.O=C(O)C(F)(F)F	-10.12 and 1.62	-10.7
Cc1cccc(C)c1NC(=O)CNC(C)Cc1ccsc1 (centres undefined)	-6.376	-27.34 and -0.6322
Cc1nc(CN2CCN(C(=O)CCc3cccc(Cl)c3)CC2)no1	11.51	22.61 and -12.8
CCn1ccc(NC(=O)c2cc(C)on2)n1	-9.279	26.66
CN1CC2(CCN(C(=O)c3cccnc3)CC2)c2cccc(F)c21.Cl	-10.58	-4.42
CC(=O)NCC(=O)N1C[C@@H](C)[C@@]2(CCN(c3ccsc3)C2=O)C1	-4.049 and 14.88	-19.82
Cl.Cl.[H][C@@]12CN(Cc3ccccc3)C[C@]1([H])[C@@H]2CN	10.08	8.1
COCCN(Cc1ccco1)Cc1nc(-c2ccsc2)no1	12.13	1.591 and 2.423
CCc1nc2n(n1)CC(NCc1nc(-c3ccccn3)no1)CC2 (centres undefined)	5.435	-0.3454

Some entries from above, unchanged:

{"compound": "CC1(C)CN(C(=O)CCc2nc(-c3ccncc3)no2)CCO1", "Mtb cholesterol medium": -22.27, "Mtb glucose medium": "-19.92 and -2.655"}
{"compound": "Cc1nn(CC(=O)NCCc2ccncc2)c(=O)n1Cc1ccccc1", "Mtb cholesterol medium": "-4.203 and -8.601", "Mtb glucose medium": 6.61}
{"compound": "CCn1ccc(NC(=O)c2cc(C)on2)n1", "Mtb cholesterol medium": -9.279, "Mtb glucose medium": 26.66}
{"compound": "CN1CCCC1c1ccnc(-c2ccccn2)n1", "stereo": "centres undefined", "Mtb cholesterol medium": -11.91, "Mtb glucose medium": -17.35}
{"compound": "COc1ccc2c(c1)OCC(CNC1CCc3nc(C)nn3C1)=C2", "stereo": "centres undefined", "Mtb cholesterol medium": 10.73, "Mtb glucose medium": 20.29}
{"compound": "Cc1nc(CN(Cc2ccncc2)C2CCN(C)CC2)cs1", "Mtb cholesterol medium": -45.65, "Mtb glucose medium": "-7.284 and -49.67"}
{"compound": "COCC1c2nnn(CC3CC3)c2CCN1C(=O)c1cc(C)[nH]c1C", "stereo": "centres undefined", "Mtb cholesterol medium": "-0.7419 and -3.599", "Mtb glucose medium": "6.02 and 3.549"}

Source: ChEMBL document CHEMBL3988442, “University of Dundee, Small-Polar-MMV Screening Library” (2021).